# Test results from PMC7862700.
# The entries are a selection whose mix differs from that of the whole data set. For part of these data: At the low end of the ranking, values are background and their order means little. Some of the results follow. For part of these data: The source does not settle which construct or isoform was used.
# What was measured:
# Assay in all cases: DAPPL (digital affinity profiling via proximity ligation, sequencing)
# Details in all cases: 10 mM Tris-HCl pH 7.5, 50 mM NaCl, 1 mM DTT, 4% glycerol, room temperature, 30 min; GST-TFs on glutathione beads, 16-mer random dsDNA library, 0.1% …; high values mean tight binding; double strand, one strand shown; scale: fold enrichment (6-mer frequency, TF over GST control)
# [1] = biological target: T1, GABPA (UniProt Q06546)
# T1 sequence: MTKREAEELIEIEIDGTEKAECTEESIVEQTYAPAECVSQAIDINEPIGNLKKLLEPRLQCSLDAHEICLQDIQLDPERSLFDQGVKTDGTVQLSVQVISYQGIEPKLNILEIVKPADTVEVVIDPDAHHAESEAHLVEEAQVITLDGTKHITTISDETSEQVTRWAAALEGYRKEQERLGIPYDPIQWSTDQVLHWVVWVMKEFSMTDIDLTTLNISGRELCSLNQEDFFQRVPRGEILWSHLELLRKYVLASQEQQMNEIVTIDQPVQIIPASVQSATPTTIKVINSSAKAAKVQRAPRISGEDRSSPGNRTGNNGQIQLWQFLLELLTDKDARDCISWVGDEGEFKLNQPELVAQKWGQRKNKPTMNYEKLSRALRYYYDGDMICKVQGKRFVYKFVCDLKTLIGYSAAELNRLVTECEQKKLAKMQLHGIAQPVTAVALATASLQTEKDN
# [2] = biological target: T2, ETS1 (UniProt P14921)
# T2 sequence: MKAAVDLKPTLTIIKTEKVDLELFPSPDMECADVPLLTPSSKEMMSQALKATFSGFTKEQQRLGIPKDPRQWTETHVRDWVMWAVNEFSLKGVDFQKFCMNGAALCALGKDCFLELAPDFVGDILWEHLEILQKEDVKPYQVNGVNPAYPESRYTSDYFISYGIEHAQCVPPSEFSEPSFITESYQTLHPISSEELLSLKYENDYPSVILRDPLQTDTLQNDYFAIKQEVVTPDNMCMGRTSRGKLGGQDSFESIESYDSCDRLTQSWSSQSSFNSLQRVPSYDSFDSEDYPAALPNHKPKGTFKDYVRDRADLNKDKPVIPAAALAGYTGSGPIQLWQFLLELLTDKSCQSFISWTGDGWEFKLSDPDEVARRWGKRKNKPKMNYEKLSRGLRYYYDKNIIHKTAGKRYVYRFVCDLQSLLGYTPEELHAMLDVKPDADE
# [3] = biological target: T3, SPDEF (UniProt O95238)
# T3 sequence: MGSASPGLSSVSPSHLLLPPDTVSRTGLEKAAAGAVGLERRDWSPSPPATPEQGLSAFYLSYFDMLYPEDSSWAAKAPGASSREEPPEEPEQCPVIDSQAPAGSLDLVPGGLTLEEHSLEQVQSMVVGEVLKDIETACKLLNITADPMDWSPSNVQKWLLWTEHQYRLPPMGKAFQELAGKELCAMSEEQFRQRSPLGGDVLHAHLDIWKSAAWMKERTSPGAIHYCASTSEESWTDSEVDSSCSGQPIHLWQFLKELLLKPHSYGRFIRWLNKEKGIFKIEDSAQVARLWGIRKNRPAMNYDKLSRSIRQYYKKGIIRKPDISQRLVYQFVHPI
Sequence,binding signal [1],binding signal [2],binding signal [3]
CCCGGG,0.836,0.752,0.899
GCGAGA,0.547,0.531,0.475
AACGGG,0.667,0.681,0.66
GCCATG,0.819,0.793,0.784
GTCAGC,0.748,0.685,0.724
CCAGTC,0.276,0.271,0.285
GAGCCG,0.391,0.399,0.377
AGGGGG,0.608,0.585,0.609
GGAGGT,0.346,0.312,0.355
GCGGTA,0.726,0.753,0.718
CGTCAG,0.823,0.747,0.847
GACAAG,0.804,0.789,0.739
AGAGAG,0.488,0.47,0.477
GGCGGA,0.36,0.355,0.409
GCGAGT,0.533,0.509,0.58
CTCGGA,0.858,0.791,0.806
GAACAG,0.94,0.933,0.946
GGACAA,0.848,0.863,0.818
CAAGGA,0.712,0.713,0.781
AGAGTA,0.767,0.767,0.702
GAACGT,0.384,0.408,0.408

# Rewritten as tab-separated lines: part of the list above
Sequence	binding signal [1]	binding signal [2]	binding signal [3]
GGACAA	0.848	0.863	0.818
GAACGT	0.384	0.408	0.408

# Additional records:

Sequence,binding signal [1],binding signal [2],binding signal [3]
GACTGG,0.722,0.636,0.648
GCCAAG,0.924,0.873,0.854
GAATCG,0.692,0.607,0.575
AACAGT,0.645,0.692,0.668
TGAGGA,0.751,0.706,0.599
GCATAG,0.8,0.811,0.833
CGGTGT,0.679,0.694,0.795
TCCAGG,0.879,0.888,0.823
AGTGAG,0.266,0.247,0.245
CAGGAG,0.264,0.245,0.263
GCAAGT,0.878,0.785,0.711
GCAGGA,0.76,0.798,0.873
AGGGCG,0.568,0.518,0.58
GACACC,0.861,0.814,0.897
TAGAGG,0.856,0.866,0.834
CAGTCT,0.738,0.719,0.711
GGGACA,0.674,0.678,0.709
AGCCAT,0.828,0.817,0.814
GGATAG,0.739,0.748,0.815
GTCAAC,0.948,0.979,0.865
GGTGTA,0.749,0.867,0.813
